# Some of these results come from one statement about several compounds together.
# System: Mycobacterium tuberculosis H37Rv
# Test: Mycobacterium tuberculosis H37Rv inhibition assay (MIC, microtiter plate, alamar blue)
# Type: cell-based
# Conditions: H37Rv strain (ATCC25618), Middlebrook 7H9, 37° C. six days, alamar blue fluorescence after 48 hours
row,SMILES,MIC value [µg/mL]
1,"O=c1ccc2ccc(F)c3c2n1CC3CN1CCC(NCc2cc3c(nn2)OCCO3)CC1 (centres unmarked) [Example 10A, 1-({4-[(6,7-Dihydro[1,4]dioxino[2,3-c]pyridazin-3-ylmethyl)amino]-1-piperidinyl}methyl)-9-fluoro-1,2-dihydro-4H-pyrrolo[3,2,1-ij]quinolin-4-one]",≤ 4.0
2,"O=c1ccc2ccc(F)c3c2n1CC3CN1CCN(CC(O)c2cc3c(cn2)OCS3)CC1 (centres unmarked) [Example 78b, 9-fluoro-1-{[4-(2-hydroxy-2-[1,3]oxathiolo[5,4-c]pyridin-6-yl-ethyl)-1-piperazinyl]methyl}-1,2-dihydro-4H-pyrrolo[3,2,1-ij]quinolin-4-one]",≤ 4.0

# — patent US20100048544A1, “PYRROLO (3, 2, 1-IJ) QUINOLINE-4-ONE-DERIVATIVES FOR TREATING TUBERCULOSIS” (priority 2007, published 2010)
